For at least one compound, name, drawing or mass did not settle the structure.
What was measured:
Type in all cases: cell-based, rat
caspase-3 = experiment: Caspase-3 activity, fluorogenic assay with DEVD-AMC; conditions: BSp73AS, up to 6 hours, 100 μM, no serum (FIGS. 6B, 6C)
Protocol: To determine whether a polyphenolic compound activates caspase-3 activity in a time-dependent manner, the following assay was conducted. BSp73AS cells were cultured for 0, 1, 3, and 6 hours and Mia PACA-2 cells were cultured in the absence of serum or growth factors for 0, 1, 4, 6, and 24 hours in the presence of 100 μM or quercetin, trans-resveratrol, rutin, or control. Caspase-3 activity was measured in cell lysates with a fluorogenic assay using DEVD-AMC as a substrate. The results were normalized to the DEVDase activity in untreated cells.
To determine whether quercetin activates caspase-3 activity in a dose-dependent manner, the following assay was conducted. Cells were cultured for 6 hours in the absence of serum or growth factors in the presence of 0, 10, 20, 50, and 100 μM of quercetin. Caspase-3 activity was measured in cell lysates with a fluorogenic assay using DEVD-AMC as a substrate. The results were normalized to the DEVDase activity in untreated cells.

BSp73AS cells = experiment: Oligonucleosomal DNA fragmentation (agarose gel); conditions: 6 hours, 100 μM, no serum
Protocol: To confirm the apoptosis in vivo results, the effects of quercetin, rutin, and trans-resveratrol in other apoptosis assays in Mia PACA-2 cells and BSp73AS cells in culture were conducted. BSp73AS cells are derived from a rat pancreatic carcinoma and both Mia PACA-2 and BSp73AS cells have mutated p53 and express K-ras. Human pancreatic carcinoma cell line Mia PACA-2 and rat pancreatic carcinoma BSp73AS were cultured in Dulbecco's Modified Eagle's Medium supplemented with 10% heat inactivated FBS, penicillin G (100 U/ml) and streptomycin ([…]) in a humidified atmosphere comprising 5% (v/v) CO2. When cells were 90% confluent they were detached, washed with alternating centrifugation and resuspension, plated and incubated in the same media without FBS and with the indicated concentrations of polyphenolic compounds or vehicle for up to 96 hours. Oligonucleotide DNA fragmentation, annexin staining, and PARP proteolysis assays were conducted as follows: BSp73AS pancreatic cancer cells were cultured for 6 hours in the presence or absence of 100 μM of rutin, quercetin, or trans-resveratrol. DNA was isolated as described by Gukovskaya AS, et al. (1997) Clin Invest 100: 1853-1862, which is herein incorporated by reference. […]

NF-κB = NF-κB DNA binding activity (EMSA); conditions: BSp73AS, 6 hours; polyphenols 100 μM, MG-132 20 μM
Protocol: In order to determine the role of activated NF-κB in the regulation of apoptosis caused by the polyphenolic compound, the following assay was conducted. BSp73AS cells were cultured for 6 hours and Mia PACA-2 cells were cultured in the absence of serum or growth factors for 24 hours in the absence (controls) or presence of rutin, quercetin, trans-resveratrol, or genistein, each at 100 μM and 20 μM proteosome inhibitor MG-132. Nuclear proteins were isolated and analyzed for NF-κB DNA binding activity with electrophoretic mobility shift assay (EMSA). Specifically, aliquots of nuclear extracts with equal amount of protein, about 2 to about 10 μg, were mixed in 20 μl reactions with a buffer comprising 10 mM HEPES (pH 7.6), 50 mM KCl, 0.1 mM EDTA, 1 mM DTT, 10% (vol/vol) glycerol and 3 μg poly[d (I-C)]. […] The oligonucleotide probe containing the κB binding motif (underlined) was annealed to the complementary oligonucleotide with a 5′-G overhang and end-labeled using Klenow DNA polymerase I. The samples were electrophoresed at room temperature in 0.5×TBE buffer (1×TBE 89 mM Tris base, 89 mM boric acid and 2 mM EDTA) on nondenaturing 4.5% polyacrylamide gel at 200 V. Gels were dried and directly analyzed in the PhosphorImager (Molecular Dynamics, Sunnyvale, Calif.). […]

cytochrome c = experiment: Mitochondrial cytochrome c release (Western blot); conditions: BSp73AS, 6 hours, 100 μM
Protocol: In order to determine the effects polyphenolic compounds have on mitochondrial cytochrome c release and apoptosis, the following assay was conducted. BSp73AS cells were cultured for 6 hours and Mia PACA-2 cells were cultured in the absence of serum or growth factors for 24 hours in the absence or presence of 100 μM of each rutin, trans-resveratrol, genistein, or quercetin. Cells were washed twice with ice-cold PBS, pH 7.2 and resuspended in extraction buffer, about 500 μl, comprising 20 mM HEPES-KOH (pH 7.0), 10 mM KCl, 1 mM […], 2 mM MgCl2, 1 mM EDTA, 1 mM DTT, 250 mM sucrose, 1 mM PMSF and protease inhibitors cocktail as provided above. The lysate was incubated for 30 minutes on ice and then homogenized using a glass dounce (80 strokes). Nuclei were removed by centrifugation at 1,000 g for 10 minutes at 4° C. Supernatant was additionally centrifuged for 1 hour at 100,000 g and the resulting supernatant (cytosolic fraction) and pellet (mitochondrial fraction) were collected separately, subjected to SDS-PAGE, and Western blotting using an antibody against cytochrome c. The experiment was repeated twice with similar results.

**Q.** Which results are given for `C[C@@H]1O[C@@H](OC[C@H]2O[C@@H](Oc3c(-c4ccc(O)c(O)c4)oc4cc(O)cc(O)c4c3=O)[C@H](O)[C@@H](O)[C@@H]2O)[C@H](O)[C@H](O)[C@H]1O` [rutin]?
**A.** caspase-3 activation (caspase-3): not; oligonucleosomal DNA fragmentation (BSp73AS cells): not; NF-κB activation (DNA binding) (NF-κB): activates NF-κB; cytosolic and mitochondrial cytochrome c (cytochrome c): not
